From PMC6837540
These are yes or no findings as the source states them, for the method shown. Binding seen in cells or lysates may run through a third protein. Here binding means that the protein was enriched with, or labelled near, the bait; the list need not be complete.

By UniProt entry, the sequences of proteins in these tests, tags left out. Where a name states a change or a piece, a line headed by the entry shows the natural chain unless it says otherwise. Residues count along the entry.
UniProt Q15843, residues 1-76: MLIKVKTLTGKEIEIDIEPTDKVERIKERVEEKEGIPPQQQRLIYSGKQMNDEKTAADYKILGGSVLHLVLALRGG
UniProt Q8IIJ6: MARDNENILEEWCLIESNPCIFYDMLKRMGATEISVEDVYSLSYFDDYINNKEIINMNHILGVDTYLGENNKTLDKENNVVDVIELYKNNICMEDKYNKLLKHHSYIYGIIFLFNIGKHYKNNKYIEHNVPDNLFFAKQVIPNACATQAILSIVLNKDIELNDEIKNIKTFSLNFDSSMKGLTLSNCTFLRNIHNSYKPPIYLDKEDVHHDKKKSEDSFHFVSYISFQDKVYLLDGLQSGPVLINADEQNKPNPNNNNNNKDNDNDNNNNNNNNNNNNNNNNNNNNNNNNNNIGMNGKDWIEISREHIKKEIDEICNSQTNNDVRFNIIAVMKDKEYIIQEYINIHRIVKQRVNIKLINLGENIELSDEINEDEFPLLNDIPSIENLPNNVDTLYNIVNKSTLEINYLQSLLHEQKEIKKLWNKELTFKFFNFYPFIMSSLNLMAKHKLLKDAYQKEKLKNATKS

Target: FLAG-HsNedd8-VS (human) (UniProt Q15843)
Assay: affinity purification with mass spectrometry; only the target purified

| Molecule | binding |
| --- | --- |
| PfUCH37 (from UniProt Q8IIJ6) (enzyme) | binds |
| PfUCHL3 (enzyme, UniProt Q8IKM8 1-232) MAKNDIWTPLESNPDSLYLYSCKLGQSKLKFVDIYGFNNDLLDMIPQPVQAVIFLYPVNDNIVSENNTNDKHNLKENFDNVWFIKQYIPNSCGTIALLHLYGNLRNKFELDKDSVLDDFFNKVNEMSAEKRGQELKNNKSIENLHHEFCGQVENRDDILDVDTHFIVFVQIEGKIIELDGRKDHPTVHCFTNGDNFLYDTGKIIQDKFIEKCKDDLRFSALAVIPNDNFDII | binds |
